The nature of the assay: qHTS Assay for Modulators of Lamin A Splicing. The conditions noted are these: HeLa LMNA splicing GFP/RFP minigene ratio, 48 h. In outline: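 Read-out is the ratio of GFP to DsRed2 object intensity, acquired by 488 nm laser-scanning cytometry on HeLa lamin A-EGFP minigene reporter cells. Compound incubation 48 hrs at 37 °C in Opti-MEM with 2% FBS; DMSO 0.5% final.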
A general note: Quantitative high-throughput screening tests each substance at several concentrations.

The mark [1] stands for this setting: measured here: GFP splicing reporter channel.
Setting [2] is: measured here: RFP viability control channel.

Some of the results follow. Further columns of the screen follow, without active or inactive calls. The list favours compounds with an active or inconclusive main result. Words in brackets tell the shape of the fitted curve; partial curves, single points and poor fits give uncertain potencies.

Regarding `COc1cccc(Nc2nnc(SCC(=O)N(CC(C)C)CC(C)C)s2)c1`, the AC50 under setting [1] is 11.2 µM [rising, single point] and the AC50 under setting [2] is 14.1 µM [rising, single point].

In the case of `Cc1cc(C)c(NC(=O)CSc2nc3c(c(=O)n2C)SC(C)C3)c(C)c1` (configuration not stated), the AC50 under setting [2] is 5.01 µM [rising, partial curve]. In the case of `COc1ccccc1NS(=O)(=O)c1cn(C)c(C)n1`, under setting [1], the AC50 is 89.1 µM [falling, partial curve]. `CCc1ccc(-c2ccc(SCC(=O)Nc3nnc(C)s3)nn2)cc1`: the concentration at half-maximal activity (AC50) is 10 µM [falling, partial curve, poor fit] under setting [1] and 1.41 µM [falling, full curve, poor fit] under setting [2]. For the compound `O=[N+]([O-])c1ccc(N/N=C2\CC3CC=CC23)c([N+](=O)[O-])c1` (configuration not stated), the AC50 was 7.94 µM [rising, partial curve, poor fit] under setting [1] and 8.91 µM [rising, partial curve] under setting [2]. In the case of `Cc1c(C(C)C)c(=O)n(-c2ccccc2)n1C`, the AC50 under setting [1] was 0.141 µM [falling, full curve, poor fit]. Turning to `CCCNC(=O)Nc1nc(CC(=O)OCC)cs1`, the AC50 reads like this: under setting [1], 0.178 µM [falling, full curve, poor fit]; under setting [2], 0.224 µM [falling, full curve, poor fit]. As for `O=C(CCn1ccc2ccccc21)Nc1ccc(N2CCOCC2)cc1`, the AC50 is, setting by setting: under setting [1], 0.501 µM [falling, partial curve]; under setting [2], 0.398 µM [falling, partial curve].

Consider `CC(C)Nc1ncnc2c1cnn2-c1ccccc1`, for which the AC50 under setting [2] is 12.6 µM [rising, partial curve].

With `CCOC(=O)c1cnc(SCC(=O)Nc2cc(OC)cc(OC)c2)nc1N`, the AC50 by setting is: under setting [1], 3.98 µM [rising, partial curve]; under setting [2], 10 µM [rising, partial curve]. For `CC1(C)NC(=O)N(CCOCCOc2cccc(Oc3ccccc3)c2)C1=O`, the AC50 is 11.2 µM [rising, partial curve] under setting [1] and 17.8 µM [rising, single point] under setting [2]. On to `CCCOc1ccc(/C=C2\SC(=S)N(CC3CCCO3)C2=O)cc1` (configuration not stated), for which the AC50 was 12.6 µM [rising, partial curve, poor fit] under setting [1] and 31.6 µM [rising, single point] under setting [2]. For the compound `COc1ccc(CNc2ncnc3ccc(-c4ccc(C(=O)N(C)C)cc4)cc23)c(OC)c1`, the AC50 is, setting by setting: under setting [1], 11.2 µM [falling, partial curve]; under setting [2], 15.8 µM [falling, partial curve]. As to `O=C(COc1ccccc1Cl)Nc1ccc2nc(SCC(=O)N3CCOCC3)sc2c1`, the AC50 under setting [2] was 39.8 µM [falling, partial curve, poor fit].

In the case of `CCC(=O)c1ccc(OCC(O)CN2CC(C)OC(C)C2)cc1` (configuration not stated), the AC50 under setting [1] was 0.398 µM [falling, full curve, poor fit]. The same measure, in the same setting: under `CCCc1cc(=O)n2[nH]c(C(F)(F)F)nc2n1` stands 0.141 µM [rising, full curve, poor fit]. Consider `CCOc1cccc(/C=N/Nc2ccc(S(=O)(=O)N(CC)CC)cn2)c1O`, for which the half-maximal activity concentration (AC50) reads like this: under setting [1], 10 µM [rising, partial curve, poor fit]; under setting [2], 12.6 µM [rising, partial curve]. On to `O=C1COc2ccc(C(=O)CSc3nc4ccccc4c(=O)n3-c3ccc(Cl)c(Cl)c3)cc2N1`, for which the AC50 was 10 µM [falling, partial curve, poor fit] under setting [1] and 11.2 µM [falling, partial curve] under setting [2]. `CCOC(=O)c1cc2[nH]c3ccccc3c2[n+](-c2ccc([N+](=O)[O-])cc2)c1C`: the AC50 under setting [2] is 12.6 µM [rising, partial curve]. Still for that read-out and setting: under `O=C(COc1ccccc1)Nc1ccc(Cl)c(-c2nc3ncccc3o2)c1` stands 0.282 µM [rising, full curve, poor fit]. As for `Cc1cc(C(F)(F)F)nc(CCNCc2c(C(=O)N3CCCC3)nc3ccccn23)n1`, under setting [1], the AC50 was 35.5 µM [falling, partial curve, poor fit]. Turning to `CCCOc1ccc(C(=O)C(CCC(CNCC)C(=O)c2ccc(OCCC)cc2)CNCC)cc1` (configuration not stated), the AC50 is 17.8 µM [rising, single point] under setting [1] and 20 µM [rising, single point] under setting [2]. Take `COC(=O)c1sccc1S(=O)(=O)N(CC(=O)Nc1cc(F)ccc1F)c1ccc(C)c(C)c1`: under setting [2], the AC50 was 17.8 µM [rising, partial curve, poor fit]. Turning to `CCc1ccc(-c2[nH]nc3nc(-c4cc(OC)ccc4OC)cc(C(=O)O)c23)cc1`, the AC50 under setting [2] is 4.47 µM [rising, partial curve]. In the case of `CCc1ccc(C(=O)/C=C/c2ccc([N+](=O)[O-])o2)cc1`, the AC50 under setting [1] was 15.8 µM [falling, single point] and the AC50 under setting [2] was 17.8 µM [falling, partial curve].

As for `O=C(c1ccccc1-c1nc(-c2ccc(Cl)cc2)no1)N1CCCC1`, under setting [2], the concentration at half-maximal activity (AC50) is 11.2 µM [rising, partial curve]. Regarding `CC(C)(C)Nc1nc(N2CCCC2)nc(N2CCCC2)n1`, the AC50 runs as follows: under setting [1], 12.6 µM [falling, partial curve]; under setting [2], 35.5 µM [falling, single point].

In the case of `Cc1cc(Nc2ccccc2)c2c([N+](=O)[O-])cc(C)c(C)c2n1`, under setting [2], the AC50 is 11.2 µM [rising, partial curve]. As to `Cc1ccc(N/C=C/C(=O)c2sc(-c3ccccc3)nc2C)cc1`, the AC50 reads like this: under setting [1], 17.8 µM [rising, single point]; under setting [2], 31.6 µM [rising, single point]. Turning to `Cn1c(N)c(C(=O)COC(=O)c2ccc3c(c2)C(=O)N(c2ccc(Cl)cc2)C3=O)c(=O)n(C)c1=O`, under setting [2], the AC50 was 7.94 µM [falling, partial curve, poor fit].

On to `Cc1ccc(-c2nn(-c3ccccc3)cc2CSC(=N)N)cc1`, for which the concentration at half-maximal activity (AC50) reads like this: under setting [1], 12.6 µM [falling, single point]; under setting [2], 11.2 µM [falling, partial curve].

On to `COc1ccccc1C1(CC(=O)N2CCCCC2)CCOC(C(C)C)C1` (configuration not stated), for which, under setting [2], the AC50 is 1.12 µM [falling, full curve, poor fit].

With `N#CC1=C(N)N2C(=C(C#N)C1c1ccc(Br)cc1)Nc1ccccc12` (configuration not stated), the AC50 was 35.5 µM [falling, single point] under setting [1] and 2 µM [rising, partial curve, poor fit] under setting [2].

As to `COc1ccc(Nc2cc(C(=O)NCc3ccco3)c3ccccc3n2)c(OC)c1`, under setting [1], the AC50 was 6.31 µM [falling, partial curve]. As to `COc1ccc(-c2nn(C)c(=O)c3ccccc23)cc1NC(=O)Cn1nc(C)c2ccccc2c1=O`, the AC50 under setting [2] is 14.1 µM [rising, single point].

Turning to `Brc1c(CSc2nc3ccccc3o2)nc2ncccn12`, the AC50 under setting [2] is 12.6 µM [rising, single point]. Same read-out and setting: under `COCCNC(=S)N/N=C(\C)c1cccc([N+](=O)[O-])c1` stands 8.91 µM [rising, partial curve]. `O=C(CN1CCN(Cc2ccccc2)CC1)N1CCCc2c1c(=O)oc1ccc(O)cc21`: the AC50 under setting [1] was 22.4 µM [falling, single point] and the AC50 under setting [2] is 1 µM [falling, partial curve, poor fit]. For `Fc1cccc(Cl)c1CSc1nnc(COc2cccc3cccnc23)o1`, the AC50 under setting [2] was 14.1 µM [rising, single point].

For `CCOc1ccc(NS(=O)(=O)c2ccc(SC)cc2)cc1`, the AC50 reads like this: under setting [1], 35.5 µM [rising, single point]; under setting [2], 35.5 µM [rising, single point]. As for `Cn1cc(-c2nc3ccccc3[nH]2)c2ccccc21`, the AC50 under setting [2] was 12.6 µM [rising, single point]. Regarding `CCCc1nn(C)c(C(=O)Nc2ccc(C(C)(C)C)cc2)c1Cl`, the half-maximal activity concentration (AC50) is, setting by setting: under setting [1], 35.5 µM [rising, single point]; under setting [2], 35.5 µM [rising, single point]. For `CCc1c(C)nc2ncnn2c1NCc1cccs1`, the half-maximal activity concentration (AC50) under setting [2] is 1.26 µM [rising, full curve, poor fit]. As for `COc1ccccc1-c1nc(N(C)Cc2ccco2)c2ccccc2n1`, the AC50 under setting [1] was 11.2 µM [falling, partial curve].

For the compound `Cc1cc(C)c(S(=O)(=O)N2CCOC2CNC(=O)C(=O)NCCc2c[nH]c3ccccc23)c(C)c1` (configuration not stated), the AC50 is 31.6 µM [rising, single point] under setting [1] and 35.5 µM [rising, single point] under setting [2].

Turning to `N#CC1=C(N)C(C#N)(C#N)C(c2cccnc2)C2CC(c3ccccc3)CC=C12` (configuration not stated), the AC50 runs as follows: under setting [1], 15.8 µM [falling, single point]; under setting [2], 17.8 µM [falling, partial curve].

As for `Cc1c(Cl)cccc1Nc1ccccc1C(=O)O`, the AC50 reads like this: under setting [1], 28.2 µM [rising, partial curve]; under setting [2], 7.08 µM [rising, full curve, poor fit]. Take `COc1ccc(OC)c(CNc2ncnc3onc(C)c23)c1`: the AC50 under setting [2] is 0.00794 µM [falling, full curve, poor fit]. Regarding `O=C(NC1CCCCCCC1)c1ccccc1O`, the half-maximal activity concentration (AC50) under setting [1] was 11.2 µM [rising, single point] and the AC50 under setting [2] is 15.8 µM [rising, single point]. With `CCOC(=O)c1cc2c(=O)n3ccccc3nc2n(C(C)C)c1=NC(=O)c1c(-c2c(F)cccc2Cl)noc1C`, the AC50 under setting [2] is 0.631 µM [falling, full curve, poor fit]. Regarding `CCC1CCCCN1S(=O)(=O)c1ccc(C(=O)Nc2nnc(-c3cccs3)o2)cc1` (configuration not stated), under setting [2], the AC50 was 3.55 µM [rising, full curve]. As for `CN(C)c1ccc(C(=O)NCc2ccc3c(c2)CCN3C(=O)c2ccc(Cl)cc2)cc1`, the AC50 under setting [1] is 1.12 µM [falling, full curve, poor fit]. The same measure, in the same setting: in the case of `O=C(O)CC(NC(=O)C12CC3CC(CC(C3)C1)C2)c1ccc(OC2CCCC2)cc1` (configuration not stated) it was 1.41 µM [rising, partial curve].

A word on the AC50: it is the midpoint of the concentration-response curve, whichever way the signal moves.

The values are drawn from PubChem BioAssay AID1487 (National Center for Advancing Translational Sciences (NCATS), 2009).
